Measurements published in paper PMC6508782.
Residue numbers refer to the chain shown, from its start. These are yes or no findings as the source states them, for the method shown. A result given as binding can be weak or reduced; the word gives no strength.

Legend:
[1] = molecular target: T1, endogenous Hcf106 (Pisum sativum (endogenous in pea thylakoid)) (UniProt Q94G16); assay: native gel or EMSA; increasing [3H]Hcf106 1-107 (1:60, 1:12, 1:6, 1:3 dilutions of the translation) integrated into thylakoid, digitonin, BN-PAGE, fluorography and immunoblots with anti-Hcf106 and anti-cpTatC
T1 sequence: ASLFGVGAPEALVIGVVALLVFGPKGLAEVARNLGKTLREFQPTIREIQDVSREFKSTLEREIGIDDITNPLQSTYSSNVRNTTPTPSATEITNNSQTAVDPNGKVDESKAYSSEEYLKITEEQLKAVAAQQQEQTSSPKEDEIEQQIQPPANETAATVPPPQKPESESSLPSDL

[2] = molecular target: endogenous cpTatC (Pisum sativum (endogenous in pea thylakoid)); assay: native gel or EMSA; [3H]Hcf106 variants integrated into isolated pea thylakoid, solubilised with 2% digitonin at ~1 mg/ml chlorophyll, BN-PAGE, fluorography; read-out: migration in the ~700-kDa cpTatC/Hcf106 receptor complex
[3] = molecular target: endogenous cpTatC (Pisum sativum (endogenous in pea thylakoid)); assay: native gel or EMSA; increasing [3H]Hcf106 1-107 (1:60, 1:12, 1:6, 1:3 dilutions of the translation) integrated into thylakoid, digitonin, BN-PAGE, fluorography and immunoblots with anti-Hcf106 and anti-cpTatC

Hcf106_(1–107) (Pisum sativum) (domain or fragment)
binding [1]: binds

B1: wild-type Hcf106 (mature, in vitro translated, thylakoid-integrated) (protein, UniProt Q94G16 87-261)
chain: T1 sequence
binding [2]: binds

B2: Hcf106V17C (protein, UniProt Q94G16 87-261)
chain: T1 sequence with V17C
binding [2]: binds

B3: endogenous Hcf106 (protein, UniProt Q94G16 87-261)
chain: T1 sequence
binding [3]: binds
